# Measured values as given in PubChem BioAssay AID504834 (National Center for Advancing Translational Sciences (NCATS), 2011).
# The campaign covered roughly 320,000 compounds. About 22,000 (6.9%) were called active. The inconclusive results got no clear call from the source; some entries with a clear call stand among them for comparison. Calls follow the shape of the dose curve; as a rule, active = well fitted inhibition curve with a large enough effect; inconclusive = small, poorly fitted or top-dose-only effect, or another doubt; inactive = no such curve, though single readings can be large or run the other way. A potency beside an inconclusive call is a rough fit, not a confirmed value.
# Assay: Primary qHTS for delayed death inhibitors of the malarial parasite plastid, 96 hour incubation
# Conditions: P. falciparum luciferase reporter growth; series mostly up to 28.7 µM
# Outline: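 Two parasite generations (96 h, 37 C, 5% CO2) of compound exposure in infected erythrocytes (0.05% parasitemia, 2% hematocrit). Luciferase-reporter P. falciparum; decreased luminescence indicates inhibited growth, aimed at apicoplast-acting delayed death.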
# Potency is read from the fitted curve at half-maximal effect.
row,SMILES,Potency
1,Cc1cc(C)cc(NC(=O)C(C)N2C(=O)c3ccccc3C2=O)c1 (configuration not stated),"inconclusive: 18.5 µM [inhibitor, single point]"
2,COc1cc(NC(=O)CC(C)n2ccnc2)cc(OC)c1 (configuration not stated),inactive
3,Cc1ccc(S(=O)(=O)N2CCOCC2)cc1C(=O)OCC(=O)N1CCc2ccccc2C1,"inconclusive: 0.104 µM [inhibitor, full curve, poor fit]"
4,COc1cc(/C=C2\SC(=S)N(CCC(=O)Nc3ccccc3O)C2=O)cc(OC)c1OC,active: 13.1 µM
5,CCN(CC)c1ccc(/C=C2\C(=N)N3N=C(CC(=O)N4CCOCC4)SC3=NC2=O)cc1,"inconclusive: 13.1 µM [inhibitor, single point]"
6,O=C(c1ccc2ccccc2c1)N1CCN(c2ccc(O)cc2)CC1,"inconclusive: 0.0657 µM [inhibitor, full curve, poor fit]"
7,COc1ccc(CCn2c(N)cc(=O)[nH]c2=O)cc1OC,inactive
8,Cc1onc(-c2ccccc2)c1C(=O)OCC(=O)NCc1ccc(F)cc1,inactive
9,Cc1cn(-c2cc(NC(=O)c3ccc(C)c(NC(=O)c4cccc(-c5cn[nH]c(=O)c5)c4)c3)cc(C(F)(F)F)c2)cn1,"inconclusive: 18.5 µM [inhibitor, single point]"
10,Cc1cccc(C)c1NC(=O)CSc1nnc(C2CCCCC2)o1,"inconclusive: 18.5 µM [inhibitor, single point]"
11,Clc1cccc(-c2noc3ncnc(Nc4ccc5c(c4)OCO5)c23)c1,"inconclusive: 0.928 µM [inhibitor, partial curve, poor fit]"
12,CN1CCc2c(OCC(=O)N3N=C(c4cccs4)CC3c3ccc(F)cc3)cccc2C1=O (configuration not stated),"inconclusive: 2.62 µM [inhibitor, full curve]"
13,COc1ccc(OC)c(NC(=O)c2nnn(Cc3ccc(Br)cc3F)c2N)c1,"inconclusive: 13.1 µM [inhibitor, single point]"
14,Cc1cc2c(c(=O)n1CCN(C)C)C(c1ccc(Br)cc1)C(C#N)=C(N)O2 (configuration not stated),"inconclusive: 18.5 µM [inhibitor, single point]"
15,CCCCC1=CC2=CC(=O)C(C)(OC(=O)CC)C(=O)C2=CN1CCCOC(C)C (configuration not stated),"inconclusive: 11.7 µM [inhibitor, single point]"
16,COCCn1c(SCC#N)nnc1-c1ccc([N+](=O)[O-])cc1,"inconclusive: 13.1 µM [inhibitor, single point]"
17,Cc1[nH]c2ccccc2c1C(=O)CSc1nc2ccccc2c(=O)n1-c1ccccc1F,"inconclusive: 11.7 µM [inhibitor, single point]"
18,O=C(c1ccc(Cn2c(=O)[nH]c3ccccc3c2=O)cc1)N1CCN(c2ccccc2)CC1,active: 3.29 µM
19,CCn1c(/N=C/c2ccc(OC)cc2O)nc2ccccc21,"inconclusive: 13.1 µM [inhibitor, single point]"
20,Cc1cc(N2CCCC2)ccc1NC(=O)CN1C(=O)NC2(CCCCC2)C1=O,inactive
21,CCN1CCc2c(sc(NC(=O)c3ccc(S(=O)(=O)N(C)CC4CCCO4)cc3)c2C(N)=O)C1 (configuration not stated),active: 10.4 µM
22,CCOC(=O)c1ccc(NC(=O)NCc2ccccc2OC)cc1,active: 13.1 µM
23,CSCCC1NC(=O)N(C(C)C(=O)Nc2cc(Cl)cc(Cl)c2)C1=O (configuration not stated),"inconclusive: 16.5 µM [inhibitor, single point]"

# Rewritten as tab-separated lines: five of the compounds above.
row	SMILES	Potency
7	COc1ccc(CCn2c(N)cc(=O)[nH]c2=O)cc1OC	inactive
11	Clc1cccc(-c2noc3ncnc(Nc4ccc5c(c4)OCO5)c23)c1	inconclusive: 0.928 µM [inhibitor, partial curve, poor fit]
14	Cc1cc2c(c(=O)n1CCN(C)C)C(c1ccc(Br)cc1)C(C#N)=C(N)O2 (configuration not stated)	inconclusive: 18.5 µM [inhibitor, single point]
15	CCCCC1=CC2=CC(=O)C(C)(OC(=O)CC)C(=O)C2=CN1CCCOC(C)C (configuration not stated)	inconclusive: 11.7 µM [inhibitor, single point]
18	O=C(c1ccc(Cn2c(=O)[nH]c3ccccc3c2=O)cc1)N1CCN(c2ccccc2)CC1	active: 3.29 µM

# The list goes on:

row,SMILES,Potency
1,COc1ccc(-c2c(C#N)c(N)nc3c2c(=O)n(C)c(=O)n3C)cc1,"inconclusive: 16.5 µM [inhibitor, single point]"
2,CCS(=O)(=O)N1Cc2ccccc2CC1C(=O)Nc1nc2c(C)cccc2s1 (configuration not stated),"inconclusive: 18.5 µM [inhibitor, single point]"
3,Cc1c(NC(=O)c2ccccc2)cccc1[N+](=O)[O-],inactive
4,CCN1C(=O)[C@H]2[C@@H](c3ccc(-c4ccc(OC)cc4)c(OC)c3)N3CCCC[C@@]3(C(=O)OC)[C@H]2C1=O,active: 9.28 µM
5,O=C(Nc1ccccc1)Nc1n[nH]c2nnc(-c3ccccc3)c(-c3ccccc3)c12,"inconclusive: 18.5 µM [inhibitor, single point]"
6,C#CCNC(=O)C1=C[C@H](c2ccccc2)C[C@H](OCCCCO)O1,"inconclusive: 18.5 µM [inhibitor, single point]"
7,Cc1ccc(Oc2nn[nH]n2)cc1,inactive
8,Cc1ccc(Sc2c(C#N)c(-c3ccccc3)nn2C)cc1,"inconclusive: 10.4 µM [inhibitor, partial curve, poor fit]"
9,CN(C)c1ccc(/C=N/N2CCN(Cc3ccccc3Cl)CC2)cc1,inactive
10,CN1CCC(=O)N([C@H](COc2ccccc2)Cc2ccccc2)CC1,"inconclusive: 18.5 µM [inhibitor, single point]"
11,CC1(C)[C@@H](O)CC[C@]2(C)C3C(O)C=C4[C@H]5C[C@@](C)(C(=O)O)CC[C@]5(C)CC[C@]4(C)[C@]3(C)CC[C@@H]12 (some centres not stated),inactive
12,Oc1c(Br)cc(Br)cc1CNn1cnnc1,"inconclusive: 18.5 µM [inhibitor, partial curve, poor fit]"
13,Cc1ccccc1CC1(CO)CCCN(Cc2ccc3c(c2)OCCO3)C1 (configuration not stated),active: 14.7 µM
14,O=C(CN1CCOCC1)NNC(=S)Nc1ccccc1,active: 13.1 µM
15,COc1ccc(CN(C)CCc2ccccn2)c(OC)c1OC,"inconclusive: 3.29 µM [inhibitor, full curve, poor fit]"
16,CN(Cc1cccs1)C(=O)COC(=O)CNC(N)=O,inactive
17,CC(C)(C)OC(=O)NCCCCCNC(=O)c1[nH]cnc1C(=O)Nc1ccccc1,"inconclusive: 9.28 µM [inhibitor, single point]"
18,CCCCCCSc1ccc([C@H]2N[C@@](Cc3ccccc3)(C(=O)OC)[C@H]3C(=O)N(CC)C(=O)[C@@H]23)cc1,active: 0.465 µM
19,CC(Oc1ccccc1)C(=O)N1CCN(c2ccc(N3CCCCC3)nn2)CC1 (configuration not stated),"inconclusive: 13.1 µM [inhibitor, partial curve, poor fit]"
20,COc1ccc(S(=O)(=O)N2CCCCCC2)cc1C(=O)N(C)CC(=O)Nc1ccccc1C(F)(F)F,"inconclusive: 9.28 µM [inhibitor, partial curve]"
21,Cc1cccc(C)c1N(CC(=O)NCc1ccc(F)cc1)C(=O)c1csnn1,"inconclusive: 0.0738 µM [inhibitor, partial curve, poor fit]"
22,Cc1ccc(-c2cn(-c3ccc(OC(F)F)cc3)c3[n+]2CCCCC3)cc1,"inconclusive: 0.522 µM [inhibitor, full curve, poor fit]"
23,COc1cccc(CN2CCCC(C(=O)N3CCCCC3)C2)c1OC (configuration not stated),inactive

row,SMILES,Potency
1,CCn1cc(C(=O)O)c(=O)c2cc(F)c(N3CCN(S(=O)(=O)c4ccc(NC(C)=O)cc4)CC3)cc21,"inconclusive: 11.7 µM [inhibitor, single point]"
2,Cc1ccc(S(=O)(=O)CC(=O)N2CCN(c3ccccc3F)CC2)cc1,"inconclusive: 5.22 µM [inhibitor, partial curve, poor fit]"
3,CC1CCCC(C)N1C(=O)COC(=O)CNC(=O)c1ccccc1F (configuration not stated),"inconclusive: 1.31 µM [inhibitor, full curve, poor fit]"
4,O=C(NCN1CCN(c2ccccc2F)CC1)c1cccnc1,"inconclusive: 0.0026 µM [inhibitor, full curve, poor fit]"
5,O=C(NCCc1ccccc1)c1ccc2c(c1)OCCO2,inactive
6,C=CCN1CC(=O)N2C(c3ccccc3)c3[nH]c4ccccc4c3C[C@H]2C1=O (some centres not stated),"inconclusive: 18.5 µM [inhibitor, single point]"
7,O=C(CCN1CCCC1Cc1ccccc1)c1ccc2c(c1)OCCO2 (configuration not stated),"inconclusive: 10.4 µM [inhibitor, single point]"
8,CCC(=NCc1ccco1)c1c(O)n(C2CCCCC2)c(=O)[nH]c1=O,"inconclusive: 10.4 µM [inhibitor, single point]"
9,Cc1cccc(/C(N)=N/OC(=O)c2ccoc2C)c1,inactive
10,COc1ccc(N2CCN(C(=O)COc3ccc4c(C)cc(=O)oc4c3)CC2)cc1,"inconclusive: 10.4 µM [inhibitor, single point]"
11,COc1cc(C2C(C#N)=C(N)N(N(C)C)C3=C2C(=O)CC(C)(C)C3)cc(OC)c1OC (configuration not stated),"inconclusive: 18.5 µM [inhibitor, single point]"
12,CCOC(=O)N1CCN(C(=O)COC(=O)c2cccc(S(C)(=O)=O)c2)CC1,inactive
13,CSc1ccc2nnc(-c3cccc(F)c3)n2n1,"inconclusive: 0.0828 µM [inhibitor, full curve, poor fit]"
14,Cc1nc2sc(C(c3cccs3)N3CCN(C(=O)c4ccco4)CC3)c(O)n2n1 (configuration not stated),inactive
15,O=C(Cn1c2[n+](c3ccc(C(F)(F)F)cc31)CCCCC2)c1ccc2c(c1)OCCO2,"inconclusive: 1.04 µM [inhibitor, partial curve, poor fit]"
16,CCOC(=O)c1cc(-c2ccccc2)nn1Cc1cc(CC)no1,"inconclusive: 18.5 µM [inhibitor, single point]"
17,CC(C)C(=O)Nc1nnc(SCC(=O)NC2CC2)s1,active: 5.22 µM
18,CC(C)(C)C(=O)N1CCC[C@H]1C(O)(c1ccccc1)c1ccccc1,"inconclusive: 0.147 µM [inhibitor, full curve, poor fit]"
19,COc1cc(CC(CC(=O)O)CC(C)OCc2ccccc2)cc(OC)c1 (configuration not stated),inactive
20,O=C(CSCc1ccccc1)Nc1ccccc1C(=O)Nc1ccc(C(=O)O)cc1,inactive
21,CC1Cc2ccccc2N1S(=O)(=O)c1cnc(Cl)c(Cl)c1 (configuration not stated),"inconclusive: 10.4 µM [inhibitor, single point]"
